PubChem BioAssay AID1508588 | Peter MacCallum Cancer Centre, 2020
Purpose: 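Genome-wide search for knock-downs that heighten vemurafenib action in melanoma cells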 (primary screen). Cell system: human WM266.4 melanoma cells (BRAF V600 mutant). Reagent: siRNA pool against human genes, 40 nM. Timing: 96 h from transfection to read-out. Challenge: vemurafenib 300 nM (about IC25), added 48 h after transfection, for 48 h; comparison arm got DMSO vehicle only. Detection: 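Cell gain (DAPI nuclei at end minus before drug, mean of two replicates) and medium lactate by absorbance per cell, both as ratio to non-targeting siRNA, also grouped into fold-change classes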. Reading the numbers: cell gain with vemurafenib: higher = more cell gain than with non-targeting siRNA; lactate per cell with vemurafenib: higher = more lactate made per cell. Hit rule: 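a knock-down counts as enhancing when its fold-change classes with vehicle and with vemurafenib, taken together, show a stronger drug effect on cell gain or lactate per cell; exact class pairs not stated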. Calls: active = enhances vemurafenib effect; inactive = no enhancement seen.
The whole screen tested about 18,000 reagents; below is an unselected part. Of all reagents, 790 (4.4%) were called active. 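Calls rest on a combination of fold-change classes in drug and vehicle arms, not all shown here.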 The numbers tell different reagents against one gene apart.

Gene | reagent no. | cell gain with vemurafenib | lactate per cell with vemurafenib | outcome
PNLIPRP3 | 1 | 1.15 | 0.44 | inactive
LILRA4 | 1 | 0.81 | 0.66 | inactive
VWC2L | 1 | 0.49 | 2.34 | inactive
TRMT10A | 1 | 0.39 | 0.58 | inactive
LONP1 | 1 | 0.48 | 0.37 | inactive
SLC5A12 | 1 | 0.75 | 0.9 | inactive
PCDHA11 | 1 | 0.7 | 0.56 | inactive
STX6 | 1 | 0.24 | 0.58 | inactive
TESK1 | 1 | 0.63 | 1.11 | inactive
PPCS | 1 | 0.63 | 0.65 | inactive
SGSH | 1 | 0.69 | 0.65 | inactive
ABCC5 | 1 | 0.58 | 0.75 | inactive
CAMK2G | 1 | 1.01 | 0.49 | inactive
OCRL | 1 | 0.63 | 0.54 | inactive
SLC26A11 | 1 | 0.59 | 1.36 | inactive
SLC45A1 | 1 | 0.78 | 1.07 | inactive
NBPF10 | 1 | 0.78 | 0.53 | inactive
PCMTD1 | 1 | 0.7 | 0.74 | inactive
RBCK1 | 1 | 1.25 | 0.75 | inactive
SHH | 1 | 0.85 | 0.77 | inactive
ERCC1 | 1 | 0.6 | 1.34 | inactive
HMGB2 | 1 | 0.51 | 0.86 | inactive
OR13C4 | 1 | 0.99 | 0.88 | inactive
SYNDIG1 | 1 | 0.61 | 0.53 | inactive
TPD52 | 1 | 0.65 | 0.8 | inactive
OR4K5 | 1 | 0.44 | 0.52 | inactive
SPTLC1 | 1 | 0.06 | 0.97 | inactive
SMARCA5 | 1 | 0.4 | 0.8 | inactive
NBPF1 | 1 | 0.43 | 0.5 | inactive
CFAP45 | 1 | 0.39 | 1.27 | inactive
RPS12 | 1 | 0.03 | 1.32 | inactive
TTLL9 | 1 | 0.54 | 0.42 | inactive
ZNF106 | 1 | 0.24 | 2.21 | inactive
ZBTB7C | 1 | 0.29 | 1.69 | inactive
GLI2 | 1 | 1.12 | 0.56 | inactive
FAM170A | 1 | 0.89 | 0.78 | inactive
RC3H1 | 1 | 1.06 | 0.87 | inactive
FRY | 1 | 0.87 | 0.98 | inactive
H3C14 | 1 | 0.83 | 0.94 | inactive
NPIPB7 | 1 | 0.62 | 0.46 | active
AP3B1 | 1 | 0.22 | 2.05 | inactive
KCNJ16 | 1 | 0.79 | 1.15 | inactive
GLIS1 | 1 | 0.73 | 0.69 | inactive
TYMP | 1 | 0.94 | 0.93 | inactive
DMWD | 1 | 1.15 | 0.7 | inactive
OR11H6 | 1 | 0.03 | 0.33 | inactive
LRRN3 | 1 | 0.72 | 0.38 | active
NR0B1 | 1 | 0.86 | 0.37 | inactive
CLINT1 | 1 | 0.13 | 1.19 | inactive
MECR | 1 | 0.67 | 0.86 | inactive
AIPL1 | 1 | 0.42 | 0.76 | inactive
PRPS2 | 1 | 0.72 | 0.89 | inactive
PRIM2 | 1 | 0.28 | 1.56 | inactive
UBQLN1 | 1 | 0.78 | 1.27 | inactive
H2BC7 | 1 | 0.76 | 0.99 | inactive
EGR4 | 1 | 0.56 | 1.55 | inactive
ZNF12 | 1 | 1 | 0.68 | inactive
SCGB2A1 | 1 | 0.82 | 0.73 | inactive
OR4A47 | 1 | 0.29 | 0.46 | inactive
LYRM4 | 1 | 0.91 | 0.66 | inactive
PI4K2A | 1 | 0.62 | 1.02 | inactive
CTIF | 1 | 0.23 | 2.32 | inactive
CCL4L1 | 1 | 0.41 | 1.56 | inactive
DGLUCY | 1 | 0.39 | 0.85 | inactive
MARCHF5 | 1 | -0.04 | 1.88 | inactive
ZNF143 | 1 | 0.6 | 1.06 | inactive
MAPK1IP1L | 1 | 0.84 | 0.94 | inactive
CCL18 | 1 | 0.75 | 0.12 | active
OR8D4 | 1 | 0.68 | 1.33 | inactive
HHIPL2 | 1 | 1.26 | 0.68 | inactive
ARL9 | 1 | 0.47 | 0.44 | inactive
LGALS14 | 1 | 0.36 | 1.94 | inactive
TRIM46 | 1 | 1.06 | 0.76 | inactive
AZGP1 | 1 | 0.43 | 0.59 | inactive
SCGB1D4 | 1 | 0.81 | 0.86 | inactive
CELF6 | 1 | 1.25 | 0.44 | inactive
AGAP4 | 1 | 0.68 | 1.41 | inactive
AGAP4 | 2 | 0.53 | 0.31 | active
SLC27A1 | 1 | 0.68 | 1.29 | inactive
SLC6A19 | 1 | 0.72 | 0.73 | inactive
PSMD12 | 1 | -0.04 | 2.67 | inactive
MYBL2 | 1 | 0.45 | 2.19 | inactive
SLC35F6 | 1 | 0.84 | 0.42 | inactive
MYT1L | 1 | 0.54 | 1.67 | inactive

Part of the list above, reformatted.
TTLL9 → cell gain with vemurafenib: 0.54; lactate per cell with vemurafenib: 0.42; outcome: inactive
ZNF106 → cell gain with vemurafenib: 0.24; lactate per cell with vemurafenib: 2.21; outcome: inactive
ZBTB7C → cell gain with vemurafenib: 0.29; lactate per cell with vemurafenib: 1.69; outcome: inactive
